{"source": "patent US12059478B2", "about": "“Gene therapy” (Ospedale San Raffaele S.r.l., priority 2016, dated 2024)", "tested_on": "human cord-blood (CB)-derived CD34+ cells", "assay": "RNA-Seq time course of exposed CD34+ cells", "assay_type": "cell-based", "settings": "p-value ≤ 0.05"}
{"substance": "Poly(I:C)", "values": [{"measurement": "Genes changing over time", "result": 9496}, {"measurement": "Number of differentially expressed genes over time vs Untreated", "result": 2691}]}
